Article PMC12670160, “A drug-repurposing screen of FDA- and EMA-approved drugs identifies two NF-κB inhibitors active against eumycetoma” (Journal of Antimicrobial Chemotherapy, 2025)
Where a name gives a salt, the structure may show the parent alone. The campaign covered roughly 5,300 compounds. About 130 (2.5%) showed an effect of 50% or more. Some of the results follow.

Tested on: M. mycetomatis strain mm55
Conditions: primary screen, metabolic activity vs growth control; 96 h, 2 µM; inhibitor

Row | Compound | % viability [%]
1 | CC(C)(O)C(Cl)(Cl)Cl [ONC0000494, chlorobutanol] | 67.65
2 | COc1ccc2c(C)nc(Nc3nc(C)c(C)c(=O)[nH]3)nc2c1 [ONC0002297, madrasin] | 81.69
3 | Cl/C=C\C[N+]12CN3CN(CN(C3)C1)C2 [ONC0003842, 1z3chloroallyl1357tetraazaadamantan 1ium chloride] | 80.34
4 | O=C(NCC1(N2CCN(c3ccccc3)CC2)CCOCC1)c1cccnc1Sc1ccccc1 [ONC0003162, jnj47965567] | 82.91
5 | COc1cccc([C@@H](C)NCCCc2ccccc2Cl)c1 [ONC0003833, tecalcet] | 70.66
6 | CCn1c2ccccc2c2cc(Nc3ccnc(NCCCN4CCOCC4)n3)ccc21 [ONC0005118, ehop016] | 82.01
7 | N#C/C(=C\c1ccc(O)cc1)C(=O)O [ONC0000235, chc] | 62.15
8 | OCc1ccc(CO)o1 [ONC0001870, 25furandimethanol] | 66.12
9 | CC1(C)S[C@@H]2[C@H](NC(=O)[C@H](NC(=O)N3CCNC3=O)c3ccccc3)C(=O)N2[C@H]1C(=O)O [ONC0003154, azlocillin sodium] | 67.97
10 | Nc1nc2c(c(=O)[nH]1)C[C@@H](CCc1ccc(C(=O)N[C@@H](CCC(=O)O)C(=O)O)cc1)CN2 [ONC0005590, lometrexol] | 76.56
11 | CC(C)c1ccc2oc3nc(N)c(C(=O)O)cc3c(=O)c2c1 [ONC0000362, amlexanox] | 63.62
12 | NC(=O)c1cc[n+](CC2=C(C(=O)O)N3C(=O)[C@@H](NC(=O)[C@@H](c4ccccc4)S(=O)(=O)[O-])[C@H]3SC2)cc1 [ONC0005581, cefsulodin sodium] | 106.3
13 | CC(CCc1ccccc1)NCC(O)c1ccc(O)c(C(N)=O)c1 (stereo not drawn) [ONC0002852, labetalol hydrochloride] | 82.54
14 | NC1(C(=O)N[C@@H](CCO)c2ccc(Cl)cc2)CCN(c2ncnc3[nH]ccc23)CC1 [ONC0005194, azd5363] | 104.8
15 | CCOC(=O)[C@H](CCc1ccccc1)N[C@@H](C)C(=O)N1Cc2ccccc2C[C@H]1C(=O)O [ONC0003165, quinapril] | 61.99
16 | COc1ccc(C(Cl)=C(c2ccc(OC)cc2)c2ccc(OC)cc2)cc1 [ONC0002927, chlorotrianisene] | 61.69
17 | O=c1[nH]c2cc(C(F)(F)F)c(N3CCOCC3)cc2n(CP(=O)(O)O)c1=O [ONC0003552, zk200775] | 117.2
18 | O=C(O)c1cccnc1Nc1cccc(C(F)(F)F)c1 [ONC0000560, niflumic acid] | 90.46
19 | CC1CC(OC(=O)C(O)c2ccccc2)CC(C)(C)C1 (stereo not drawn) [ONC0003926, cyclandelate] | 70.81
20 | O=C(N/N=C/c1ccccc1O)c1ccccc1O [ONC0000023, scs] | 61.1

Row | Compound | % viability [%]
21 | O=c1ccc2ccc(OCCCCN3CCN(c4cccc5sccc45)CC3)cc2[nH]1 [ONC0001141, brexpiprazole] | 76.07
22 | CC(C)Cc1sc(N)nc1-c1ccc(P(=O)(O)O)o1 [ONC0001018, mb05032] | 100.1
23 | C[N+](C)(C)CCCCCC[N+](C)(C)C [ONC0002829, hexamethonium bromide] | 132.4
24 | CCCCCCCCc1ccc(-c2ccc(C(=O)O)cc2)cc1 [ONC0003742, ac55649] | 138.2
25 | c1cc(Cc2cnc[nH]2)ccn1 [ONC0003600, immethridine] | 134.1
26 | CN(C)/N=N/c1[nH]cnc1C(N)=O [ONC0000348, dacarbazine] | 78.71
27 | CN1C[C@@H](NS(=O)(=O)N(C)C)C[C@@H]2c3cccc4c3c(cn4C)C[C@H]21 [ONC0001892, mesulerginehcl] | 102.3
28 | Cc1onc(-c2c(Cl)cccc2Cl)c1C(=O)N[C@@H]1C(=O)N2[C@@H]1SC(C)(C)[C@@H]2C(=O)O [ONC0000544, dicloxacillin sodium] | 69.15
29 | Cc1cc(NC(=O)Nc2ccc(N(C)C)cc2)c2cc(F)cc(F)c2n1 [ONC0004407, sb408124] | 128.6
30 | OC[C@H]1O[C@@H](n2cnc3c2NC=NC[C@H]3O)C[C@@H]1O [ONC0005553, pentostatin] | 64.87
31 | CN1C(C)(C)CCCC1(C)C [ONC0002861, pempidine tartrate] | 118.7
32 | Cn1cc(-c2ccc3ncc(Cc4ccc5ncccc5c4)n3n2)cn1 [ONC0005064, nvpbvu972] | 95.46
33 | COc1cnc(-c2ccc(Cn3c(CC(C)(C)C(=O)O)c(SC(C)(C)C)c4cc(OC[C@@H]5Cc6ccccc6N5C(C)=O)ccc43)cc2)nc1 [ONC0000711, am679] | 69.68
34 | Nc1ncc2c(n1)CC(c1ccco1)CC2=O (stereo not drawn) [ONC0000078, nky80] | 78.92
35 | O=[N+]([O-])c1cc([N+](=O)[O-])c(/C=C/c2ccc(Cl)c(Cl)c2)cc1/C=C/c1ccc(Cl)c(Cl)c1 [ONC0003567, nsc636819] | 111.7
36 | O=c1cc(N2CCOCC2)oc2c(-c3cccc4c3sc3ccccc34)cccc12 [ONC0004358, nu7441ku57788] | 136.2
37 | COc1ccc([C@@H]2CC(=O)c3c(O)cc(O[C@@H]4O[C@H](CO[C@@H]5O[C@@H](C)[C@H](O)[C@@H](O)[C@H]5O)[C@@H](O)[C@H](O)[C@H]4O)cc3O2)cc1O [ONC0004994, hesperidin] | 67.6
38 | CO[C@H](C(=O)[C@@H](O)[C@@H](C)O)[C@@H]1Cc2cc3cc(O[C@H]4C[C@@H](O[C@H]5C[C@@H](O)[C@H](O)[C@@H](C)O5)[C@@H](O)[C@@H](C)O4)c(C)c(O)c3c(O)c2C(=O)[C@H]1O[C@H]1C[C@@H](O[C@H]2C[C@@H](O[C@H]3C[C@](C)(O)[C@H](O)[C@@H](C)O3)[C@H](O)[C@@H](C)O2)[C@H](O)[C@@H](C)O1 [ONC0003516, plicamycin mithramycin] | 50.92
39 | COc1cccc(-c2cc(NCc3ccc4c(c3)OCO4)nc(N)n2)c1 [ONC0001916, bml284] | 93.59
40 | CCN(CC)CCCCNc1ncc2cc(-c3c(Cl)cccc3Cl)c(NC(=O)NC(C)(C)C)nc2n1 [ONC0002581, pd161570] | 80.33

Row | Compound | % viability [%]
41 | CC(=O)NC1=NN(C(C)=O)C(C)(c2ccccc2)S1 (stereo not drawn) [ONC0002658, k858] | 49.67
42 | Cc1ccc(-c2csc(NC(=O)c3ccccc3)n2)c(C)c1 [ONC0000101, inh1] | 105
43 | CC(=O)O[C@]1(C(C)=O)CC[C@H]2[C@@H]3C[C@H](C)C4=CC(=O)C=C[C@]4(C)[C@@]3(F)[C@@H](O)C[C@@]21C [ONC0004573, fluorometholone acetate] | 70.28
44 | O=C[C@H](O)[C@@H](O)[C@H](O)CO [ONC0002758, xylose] | 82.95
45 | CCCC(CCC)C(=O)NCC(N)=O [ONC0003729, valrocemide] | 110.7
46 | O=C(O)COc1ccc(OCCNC[C@H](O)COc2ccccc2)cc1 [ONC0002275] | 78.74
47 | NS(=O)(=O)c1cc(C(=O)O)cc(N2CCCC2)c1Oc1ccccc1 [ONC0002921, piretanide] | 95.29
48 | CN(C)CCCN1c2ccccc2Sc2ccccc21 [ONC0000468, promazine hydrochloride] | 105.3
49 | O=C(OCCO)c1ccccc1O [ONC0002561, 2hydroxyethyl salicylate] | 94.22
50 | NC(Cc1ccc(Cl)cc1)C(=O)O (stereo not drawn) [ONC0004058, fenclonine] | 115.9
51 | Cc1cc(C(C)(C)C)c(O)c(C)c1CC1=NCCN1 [ONC0000589, oxymetazoline hydrochloride] | 69.04
52 | CSc1ccc2c(c1)C(N1CCN(C)CC1)Cc1ccccc1S2 (stereo not drawn) [ONC0002377, metitepine mesylate] | 106.2
53 | CC(C)(C)C(=O)Oc1ccc(S(=O)(=O)Nc2ccccc2C(=O)NCC(=O)O)cc1 [ONC0001258, sivelestat sodium tetrahydrate] | 72.66
54 | CC(C(=O)O)c1ccc2c(c1)Cc1cccnc1O2 (stereo not drawn) [ONC0004849, pranoprofen] | 94.56
55 | C[C@H]1COc2c(C3(N)CC3)c(F)cc3c(=O)c(C(=O)O)cn1c23 [ONC0004103, pazufloxacin mesylate] | 108
56 | COc1ccc([C@]2(O)CC[C@H](N3CC[C@@H](NC(=O)CNC(=O)c4cccc(C(F)(F)F)c4)C3)CC2)cn1 [ONC0003647, incb 3284] | 73.08
57 | C[N+]1(C)[C@@H]2C[C@@H](OC(=O)C(O)(c3cccs3)c3cccs3)C[C@H]1[C@@H]1O[C@@H]12 [ONC0004964, tiotropium bromide hydrate] | 92.43
58 | CN[C@H](C(=O)N[C@H](C(=O)N(C)[C@H](/C=C(\C)C(=O)O)C(C)C)C(C)(C)C)C(C)(C)c1ccccc1 [ONC0001108, taltobulin trifluoroacetate] | 64.78
59 | CCCN1C[C@H](CSC)C[C@@H]2c3cccc4[nH]cc(c34)C[C@H]21 [ONC0004518, pergolide mesylate] | 87.18
60 | Cc1cc(C(N)=O)ccc1-n1c(CCC(=O)O)ccc1-c1ccc(-n2ccnc2)cc1 [ONC0002521, n6022] | 67.4

Part of the list above in order of length of the SMILES, smallest number first.
Row | Compound | % viability [%]
49 | O=C(OCCO)c1ccccc1O [ONC0002561, 2hydroxyethyl salicylate] | 94.22
45 | CCCC(CCC)C(=O)NCC(N)=O [ONC0003729, valrocemide] | 110.7
50 | NC(Cc1ccc(Cl)cc1)C(=O)O (stereo not drawn) [ONC0004058, fenclonine] | 115.9
48 | CN(C)CCCN1c2ccccc2Sc2ccccc21 [ONC0000468, promazine hydrochloride] | 105.3
44 | O=C[C@H](O)[C@@H](O)[C@H](O)CO [ONC0002758, xylose] | 82.95
54 | CC(C(=O)O)c1ccc2c(c1)Cc1cccnc1O2 (stereo not drawn) [ONC0004849, pranoprofen] | 94.56
51 | Cc1cc(C(C)(C)C)c(O)c(C)c1CC1=NCCN1 [ONC0000589, oxymetazoline hydrochloride] | 69.04
41 | CC(=O)NC1=NN(C(C)=O)C(C)(c2ccccc2)S1 (stereo not drawn) [ONC0002658, k858] | 49.67
42 | Cc1ccc(-c2csc(NC(=O)c3ccccc3)n2)c(C)c1 [ONC0000101, inh1] | 105
46 | O=C(O)COc1ccc(OCCNC[C@H](O)COc2ccccc2)cc1 [ONC0002275] | 78.74
55 | C[C@H]1COc2c(C3(N)CC3)c(F)cc3c(=O)c(C(=O)O)cn1c23 [ONC0004103, pazufloxacin mesylate] | 108
60 | Cc1cc(C(N)=O)ccc1-n1c(CCC(=O)O)ccc1-c1ccc(-n2ccnc2)cc1 [ONC0002521, n6022] | 67.4
53 | CC(C)(C)C(=O)Oc1ccc(S(=O)(=O)Nc2ccccc2C(=O)NCC(=O)O)cc1 [ONC0001258, sivelestat sodium tetrahydrate] | 72.66
57 | C[N+]1(C)[C@@H]2C[C@@H](OC(=O)C(O)(c3cccs3)c3cccs3)C[C@H]1[C@@H]1O[C@@H]12 [ONC0004964, tiotropium bromide hydrate] | 92.43
43 | CC(=O)O[C@]1(C(C)=O)CC[C@H]2[C@@H]3C[C@H](C)C4=CC(=O)C=C[C@]4(C)[C@@]3(F)[C@@H](O)C[C@@]21C [ONC0004573, fluorometholone acetate] | 70.28
